Results published in PubChem BioAssay AID463183 (Sanford-Burnham Center for Chemical Genomics, 2010).
The other results are listed elsewhere or left out. The main result of the screen is listed elsewhere. These columns were measured beside it and carry no call. Compounds called inactive in the main read-out are mostly missing here.

Assay: blockers of oleate-driven lipid droplets in liver cells – imaging, AML12 mouse hepatocytes, single concentration, high-content, confirmation (AID 463183);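 also: cells counted after overnight compound exposure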
Conditions: BODIPY lipid droplet imaging, measured here: cell count, cytotoxicity, at 5.2 µM, droplets induced with 100 µM oleic acid

| SMILES | cell count [cells] |
| --- | --- |
| Cc1[nH]n(-c2ccccc2)c(=O)c1N=Nc1cccc(Cl)c1 | 1640 |
| CCCCOc1ccccc1C(=O)N(Cc1ccc(C)o1)C1CCS(=O)(=O)C1 (stereo unspecified) | 1480 |
| CCOc1ccc(CCNC(=O)c2cc(C)nc3ccccc23)cc1OCC | 1620 |
| CS(=O)(=O)N(Cc1ccc(Cl)cc1)c1ccc(C(=O)N/N=C/c2cc3ccccc3nc2Cl)cc1 | 1660 |
| CCOc1cc(/C=N\Nc2nc(Nc3ccccc3)nc(N3CCOCC3)n2)ccc1OC(=O)c1ccco1 | 895 |
| O=C1CSC(c2cn(-c3ccccc3)nc2-c2ccccc2)N1Cc1ccco1 (stereo unspecified) | 1640 |
| CC(C)(C)C(=O)Nc1nc2c(s1)COc1ccccc1-2 | 1620 |
| CCOc1ccc(CCNC(=O)COC(=O)/C=C/c2ccc(OC)c(OC)c2)cc1OCC | 1590 |
| CCCc1nc2ccccc2c(C(=O)OC(C)C(=O)NCc2ccc3c(c2)OCO3)c1CC (stereo unspecified) | 1630 |
| O=[N+]([O-])c1sccc1CS(=O)(=O)c1ccccc1 | 1680 |
| CCC(C)C(=O)N1c2ccccc2C(=C2SC(C(=O)OC)=C(C(=O)OC)S2)C(=S)C1(C)C (stereo unspecified) | 1470 |
| COc1ccc(C(C(=O)NC(C)(C)C)N(CCC(C)C)C(=O)CCC(=O)Nc2cc(C)on2)cc1 (stereo unspecified) | 1600 |
| C=CCN(C(=O)c1csnn1)C(C(=O)NC1CCCCC1)c1ccccc1F (stereo unspecified) | 1600 |
| COc1ccccc1N=Nc1c(C)[nH]n(-c2ccccc2)c1=O | 1600 |
| COC(=O)c1cc(-c2ccc(OC)cc2)nc2nc(SC)[nH]c(=O)c12 | 1630 |
| Cc1ccc(S(=O)(=O)N(C)C)cc1NC(=S)Nc1ccc2cn[nH]c2c1 | 1660 |

2 entries from above, with each value named.
CCCc1nc2ccccc2c(C(=O)OC(C)C(=O)NCc2ccc3c(c2)OCO3)c1CC (stereo unspecified)
  cell count [cells]: 1630
COC(=O)c1cc(-c2ccc(OC)cc2)nc2nc(SC)[nH]c(=O)c12
  cell count [cells]: 1630
